# Measurements from publication PMC8706813.
# Sequences of proteins named here, by UniProt entry; tags and fusion partners are left off.
# UniProt Q14457: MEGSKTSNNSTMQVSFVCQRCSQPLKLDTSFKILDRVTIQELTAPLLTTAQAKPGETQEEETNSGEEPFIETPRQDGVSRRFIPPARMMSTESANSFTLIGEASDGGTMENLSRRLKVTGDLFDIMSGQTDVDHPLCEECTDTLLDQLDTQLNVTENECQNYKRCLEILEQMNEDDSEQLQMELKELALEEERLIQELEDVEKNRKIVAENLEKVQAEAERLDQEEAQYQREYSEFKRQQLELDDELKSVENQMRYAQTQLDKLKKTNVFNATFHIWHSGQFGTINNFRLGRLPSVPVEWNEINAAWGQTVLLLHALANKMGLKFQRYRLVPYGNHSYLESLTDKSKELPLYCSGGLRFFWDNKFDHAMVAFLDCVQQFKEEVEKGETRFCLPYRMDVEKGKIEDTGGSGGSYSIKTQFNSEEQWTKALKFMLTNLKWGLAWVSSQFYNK
# UniProt P10415: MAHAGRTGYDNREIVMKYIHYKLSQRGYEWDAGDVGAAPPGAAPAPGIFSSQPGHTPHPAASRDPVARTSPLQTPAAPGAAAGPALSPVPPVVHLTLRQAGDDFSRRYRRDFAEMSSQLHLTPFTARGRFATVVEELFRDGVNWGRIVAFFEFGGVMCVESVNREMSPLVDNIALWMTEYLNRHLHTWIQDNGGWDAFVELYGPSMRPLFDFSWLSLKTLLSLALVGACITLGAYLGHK
# Results are given in words; binding and its absence hold for the method and conditions named. Binding seen in cells or lysates may run through a third protein. Some entries that bind do so weakly or less than the wild type.
# What was measured:
# [1] = target: Beclin-1 (human (endogenous in AGS and SNU-638)) (UniProt Q14457); assay: co-IP; lysates of AGS and SNU-638 cells treated with APG (50 μM) for the indicated times; IP with anti-Bcl-2 or anti-Beclin-1 at 4 °C for 16 h, protein A/G Plus agarose; IP buffer pH 7.5, 50 mM Tris-HCl, 250 mM NaCl, 5 mM EDTA, 0.5% NP-40; Western blot
# [2] = target: Bcl-2 (human (endogenous in AGS and SNU-638)) (UniProt P10415); assay: as above
binding [1],binding [2],Substance
binds,,Bcl-2 (from UniProt P10415 1-239)
,binds,Beclin-1 (from UniProt Q14457 1-450)
